Results published in the supplement of paper PMC10849652.
The other results are listed elsewhere or left out.

Amino acid sequences for entries named in this document (tags omitted). A change or cut given only in a name is not applied to a line headed by its entry.
UniProt P08648, whole entry, looked up: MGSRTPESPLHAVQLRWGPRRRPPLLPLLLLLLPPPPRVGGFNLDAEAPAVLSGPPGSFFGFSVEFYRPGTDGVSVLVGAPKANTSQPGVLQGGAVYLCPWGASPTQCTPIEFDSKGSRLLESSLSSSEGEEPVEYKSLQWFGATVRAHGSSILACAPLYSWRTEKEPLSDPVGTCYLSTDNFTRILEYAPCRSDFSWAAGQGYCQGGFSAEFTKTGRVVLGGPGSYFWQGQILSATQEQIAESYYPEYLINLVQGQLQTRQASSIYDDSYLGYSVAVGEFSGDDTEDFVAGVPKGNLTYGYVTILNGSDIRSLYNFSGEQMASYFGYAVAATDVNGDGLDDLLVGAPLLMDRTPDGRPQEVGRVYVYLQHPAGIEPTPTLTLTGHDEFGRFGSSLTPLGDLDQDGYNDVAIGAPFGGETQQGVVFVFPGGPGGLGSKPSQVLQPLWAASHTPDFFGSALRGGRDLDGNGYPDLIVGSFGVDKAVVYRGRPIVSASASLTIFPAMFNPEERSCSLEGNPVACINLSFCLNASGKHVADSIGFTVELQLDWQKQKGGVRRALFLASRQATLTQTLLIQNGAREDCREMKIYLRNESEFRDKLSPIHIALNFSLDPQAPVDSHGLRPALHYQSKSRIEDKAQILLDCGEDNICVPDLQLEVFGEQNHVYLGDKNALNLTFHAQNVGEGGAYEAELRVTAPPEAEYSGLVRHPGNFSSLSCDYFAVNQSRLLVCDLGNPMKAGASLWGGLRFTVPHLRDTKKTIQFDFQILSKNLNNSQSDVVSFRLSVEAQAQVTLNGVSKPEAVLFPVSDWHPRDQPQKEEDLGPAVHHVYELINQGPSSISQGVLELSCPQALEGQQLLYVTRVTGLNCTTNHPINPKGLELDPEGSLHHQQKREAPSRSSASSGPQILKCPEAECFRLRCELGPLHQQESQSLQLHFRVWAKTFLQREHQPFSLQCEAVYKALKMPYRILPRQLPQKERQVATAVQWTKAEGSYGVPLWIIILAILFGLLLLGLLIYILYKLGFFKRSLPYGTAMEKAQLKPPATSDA
UniProt P53990, whole entry, looked up: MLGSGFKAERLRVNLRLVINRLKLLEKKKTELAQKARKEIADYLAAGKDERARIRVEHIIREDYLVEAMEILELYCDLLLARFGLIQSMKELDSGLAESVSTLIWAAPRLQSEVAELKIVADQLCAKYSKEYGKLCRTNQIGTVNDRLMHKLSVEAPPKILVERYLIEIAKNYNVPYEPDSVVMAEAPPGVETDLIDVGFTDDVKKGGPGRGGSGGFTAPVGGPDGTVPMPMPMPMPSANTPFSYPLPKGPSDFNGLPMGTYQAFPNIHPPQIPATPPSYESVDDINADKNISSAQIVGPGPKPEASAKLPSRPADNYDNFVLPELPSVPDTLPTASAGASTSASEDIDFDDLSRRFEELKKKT
UniProt O43736: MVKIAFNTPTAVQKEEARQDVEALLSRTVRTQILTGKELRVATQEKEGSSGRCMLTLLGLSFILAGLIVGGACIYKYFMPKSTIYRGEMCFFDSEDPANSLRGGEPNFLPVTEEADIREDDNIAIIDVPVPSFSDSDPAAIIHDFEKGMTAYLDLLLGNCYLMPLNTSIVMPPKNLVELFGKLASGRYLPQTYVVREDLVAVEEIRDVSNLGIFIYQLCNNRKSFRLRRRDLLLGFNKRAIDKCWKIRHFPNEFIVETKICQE
UniProt Q14624: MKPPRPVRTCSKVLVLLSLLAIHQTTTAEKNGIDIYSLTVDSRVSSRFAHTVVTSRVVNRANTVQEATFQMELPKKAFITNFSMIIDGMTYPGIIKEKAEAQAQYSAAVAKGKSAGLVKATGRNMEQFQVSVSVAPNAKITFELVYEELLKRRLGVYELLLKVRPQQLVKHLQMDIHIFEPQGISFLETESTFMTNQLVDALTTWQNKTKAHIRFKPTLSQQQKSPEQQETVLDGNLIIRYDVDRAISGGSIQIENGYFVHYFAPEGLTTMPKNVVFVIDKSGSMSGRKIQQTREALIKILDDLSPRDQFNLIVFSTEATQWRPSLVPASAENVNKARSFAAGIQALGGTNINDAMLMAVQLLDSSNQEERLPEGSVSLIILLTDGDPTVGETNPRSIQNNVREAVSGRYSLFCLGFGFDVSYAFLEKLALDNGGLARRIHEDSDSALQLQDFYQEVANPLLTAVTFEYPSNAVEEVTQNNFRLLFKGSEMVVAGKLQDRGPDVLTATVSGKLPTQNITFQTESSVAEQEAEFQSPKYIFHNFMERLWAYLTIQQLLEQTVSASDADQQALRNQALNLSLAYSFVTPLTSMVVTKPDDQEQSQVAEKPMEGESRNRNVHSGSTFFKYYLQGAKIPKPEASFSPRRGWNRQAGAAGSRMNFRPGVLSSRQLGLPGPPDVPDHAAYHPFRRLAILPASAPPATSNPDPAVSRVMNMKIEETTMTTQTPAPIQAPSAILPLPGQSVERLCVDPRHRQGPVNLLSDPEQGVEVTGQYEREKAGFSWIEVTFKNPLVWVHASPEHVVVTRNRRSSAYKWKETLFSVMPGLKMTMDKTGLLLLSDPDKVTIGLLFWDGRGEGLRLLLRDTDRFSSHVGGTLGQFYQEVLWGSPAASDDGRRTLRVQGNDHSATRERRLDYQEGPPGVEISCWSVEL
UniProt Q96T52: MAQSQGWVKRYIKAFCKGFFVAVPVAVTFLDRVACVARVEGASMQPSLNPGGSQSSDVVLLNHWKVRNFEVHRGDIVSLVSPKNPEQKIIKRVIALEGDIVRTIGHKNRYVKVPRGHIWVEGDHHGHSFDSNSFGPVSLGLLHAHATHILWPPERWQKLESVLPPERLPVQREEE
UniProt Q96A47: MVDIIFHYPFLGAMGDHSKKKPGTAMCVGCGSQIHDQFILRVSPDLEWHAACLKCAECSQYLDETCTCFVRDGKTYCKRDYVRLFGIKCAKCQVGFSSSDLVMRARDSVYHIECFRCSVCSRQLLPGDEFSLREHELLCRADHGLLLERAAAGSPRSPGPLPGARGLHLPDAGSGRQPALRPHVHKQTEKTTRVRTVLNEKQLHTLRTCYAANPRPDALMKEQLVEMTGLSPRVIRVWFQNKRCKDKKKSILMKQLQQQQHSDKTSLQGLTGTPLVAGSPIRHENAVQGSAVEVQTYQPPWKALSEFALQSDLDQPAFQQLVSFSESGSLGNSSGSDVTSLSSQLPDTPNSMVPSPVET
UniProt P58166: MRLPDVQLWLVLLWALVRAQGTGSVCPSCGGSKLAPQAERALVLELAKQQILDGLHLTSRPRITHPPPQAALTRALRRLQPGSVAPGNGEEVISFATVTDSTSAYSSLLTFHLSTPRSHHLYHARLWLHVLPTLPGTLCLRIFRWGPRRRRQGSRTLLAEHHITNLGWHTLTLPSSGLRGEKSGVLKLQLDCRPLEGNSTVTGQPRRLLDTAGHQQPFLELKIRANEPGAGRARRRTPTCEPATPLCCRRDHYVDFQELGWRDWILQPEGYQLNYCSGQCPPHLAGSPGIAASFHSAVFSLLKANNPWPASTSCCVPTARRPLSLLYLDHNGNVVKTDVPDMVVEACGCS
UniProt P31785: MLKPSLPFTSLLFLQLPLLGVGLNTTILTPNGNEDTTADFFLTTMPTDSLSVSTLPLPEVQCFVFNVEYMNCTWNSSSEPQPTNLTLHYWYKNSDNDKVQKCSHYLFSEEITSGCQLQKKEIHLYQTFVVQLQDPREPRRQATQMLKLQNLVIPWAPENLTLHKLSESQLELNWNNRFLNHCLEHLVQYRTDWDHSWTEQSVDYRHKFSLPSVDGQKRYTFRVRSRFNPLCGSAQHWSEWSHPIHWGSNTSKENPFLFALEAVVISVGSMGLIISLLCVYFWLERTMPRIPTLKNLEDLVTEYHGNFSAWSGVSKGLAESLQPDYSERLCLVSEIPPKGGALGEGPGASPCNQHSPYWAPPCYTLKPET
UniProt Q9NQS7, whole entry, looked up: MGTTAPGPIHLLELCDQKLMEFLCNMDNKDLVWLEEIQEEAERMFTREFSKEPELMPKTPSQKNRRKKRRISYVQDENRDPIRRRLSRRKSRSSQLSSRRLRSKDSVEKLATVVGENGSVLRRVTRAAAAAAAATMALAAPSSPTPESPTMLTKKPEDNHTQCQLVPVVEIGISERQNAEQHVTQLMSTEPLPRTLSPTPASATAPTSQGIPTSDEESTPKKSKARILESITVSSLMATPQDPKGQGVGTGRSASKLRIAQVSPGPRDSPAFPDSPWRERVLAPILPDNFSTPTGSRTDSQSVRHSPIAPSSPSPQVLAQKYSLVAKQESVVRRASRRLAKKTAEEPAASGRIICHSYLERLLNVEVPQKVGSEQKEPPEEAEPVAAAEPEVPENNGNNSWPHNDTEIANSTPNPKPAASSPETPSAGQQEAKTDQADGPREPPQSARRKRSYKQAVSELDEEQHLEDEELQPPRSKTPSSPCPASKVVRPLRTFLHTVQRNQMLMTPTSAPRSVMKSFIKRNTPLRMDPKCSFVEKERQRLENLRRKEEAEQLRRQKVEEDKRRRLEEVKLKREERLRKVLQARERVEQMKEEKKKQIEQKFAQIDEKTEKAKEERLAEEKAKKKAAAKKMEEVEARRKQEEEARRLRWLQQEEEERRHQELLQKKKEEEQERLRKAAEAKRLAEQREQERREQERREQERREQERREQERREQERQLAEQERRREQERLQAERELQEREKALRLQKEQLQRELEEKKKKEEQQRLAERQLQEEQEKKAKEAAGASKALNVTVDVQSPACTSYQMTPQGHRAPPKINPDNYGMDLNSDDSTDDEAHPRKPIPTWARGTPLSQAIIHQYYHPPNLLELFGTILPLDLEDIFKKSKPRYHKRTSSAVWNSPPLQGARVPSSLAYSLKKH
UniProt Q9BW83: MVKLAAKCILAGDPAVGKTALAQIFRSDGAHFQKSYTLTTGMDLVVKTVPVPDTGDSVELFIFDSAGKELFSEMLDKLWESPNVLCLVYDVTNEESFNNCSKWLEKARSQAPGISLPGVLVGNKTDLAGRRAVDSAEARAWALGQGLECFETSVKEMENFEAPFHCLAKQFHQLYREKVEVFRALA
UniProt Q8N6C5: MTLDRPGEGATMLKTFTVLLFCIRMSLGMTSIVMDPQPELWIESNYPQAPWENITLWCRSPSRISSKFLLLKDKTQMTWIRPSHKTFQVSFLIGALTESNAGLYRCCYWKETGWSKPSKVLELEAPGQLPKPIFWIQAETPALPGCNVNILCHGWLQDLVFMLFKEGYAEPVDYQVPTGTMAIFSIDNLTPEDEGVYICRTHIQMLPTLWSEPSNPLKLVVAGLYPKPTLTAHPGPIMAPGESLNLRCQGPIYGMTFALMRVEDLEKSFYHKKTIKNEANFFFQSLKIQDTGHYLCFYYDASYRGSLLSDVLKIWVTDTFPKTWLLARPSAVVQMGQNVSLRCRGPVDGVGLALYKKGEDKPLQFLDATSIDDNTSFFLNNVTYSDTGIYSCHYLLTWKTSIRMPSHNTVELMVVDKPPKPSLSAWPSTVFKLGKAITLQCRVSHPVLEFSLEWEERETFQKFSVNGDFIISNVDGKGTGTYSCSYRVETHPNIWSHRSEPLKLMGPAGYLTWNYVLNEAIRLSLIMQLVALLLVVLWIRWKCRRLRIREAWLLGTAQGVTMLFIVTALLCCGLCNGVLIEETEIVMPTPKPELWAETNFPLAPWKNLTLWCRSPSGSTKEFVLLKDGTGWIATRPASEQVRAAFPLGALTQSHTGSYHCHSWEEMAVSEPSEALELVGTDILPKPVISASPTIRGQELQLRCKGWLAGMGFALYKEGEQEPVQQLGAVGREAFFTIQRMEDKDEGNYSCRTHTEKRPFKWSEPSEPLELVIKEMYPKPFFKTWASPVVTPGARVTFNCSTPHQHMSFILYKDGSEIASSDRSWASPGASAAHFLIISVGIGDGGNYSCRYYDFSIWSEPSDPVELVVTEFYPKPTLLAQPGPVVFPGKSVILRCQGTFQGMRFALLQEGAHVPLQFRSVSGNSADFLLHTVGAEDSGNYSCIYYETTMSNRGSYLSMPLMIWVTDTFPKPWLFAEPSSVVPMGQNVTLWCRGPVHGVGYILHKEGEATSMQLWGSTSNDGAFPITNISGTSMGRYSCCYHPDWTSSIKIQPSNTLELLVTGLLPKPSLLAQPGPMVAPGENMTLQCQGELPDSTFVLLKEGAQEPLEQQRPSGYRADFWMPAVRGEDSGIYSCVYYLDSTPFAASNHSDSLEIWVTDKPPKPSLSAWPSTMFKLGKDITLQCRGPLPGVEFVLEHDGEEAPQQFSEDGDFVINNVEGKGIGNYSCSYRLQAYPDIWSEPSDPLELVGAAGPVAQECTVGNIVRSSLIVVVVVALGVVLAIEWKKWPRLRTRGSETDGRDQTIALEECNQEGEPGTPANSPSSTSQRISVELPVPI
UniProt Q8NBZ0, whole entry, looked up: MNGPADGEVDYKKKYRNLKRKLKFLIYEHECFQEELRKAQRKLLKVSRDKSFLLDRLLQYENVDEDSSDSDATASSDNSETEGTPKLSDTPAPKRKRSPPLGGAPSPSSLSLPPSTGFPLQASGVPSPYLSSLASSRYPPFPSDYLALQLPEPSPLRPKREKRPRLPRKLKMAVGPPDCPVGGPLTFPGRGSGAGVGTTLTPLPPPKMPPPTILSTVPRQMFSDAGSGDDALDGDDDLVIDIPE

What was measured:
Assay in all cases: log2 fold change, soluble protein after heating vs DMSO (PISA); higher = thermal stabilisation; K562 cells, 10 uM, 30 min; active = over 0.2 and 3.5 SD of the protein, either way, in both replicates (recomputed)
[1] = compound: CC1=C(C=C(C=C1)NC(=O)C2=CC(=CC=C2)C(C)(C)C#N)NC3=CC4=C(C=C3)N=CN(C4=O)C
Outline: (§1)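 Aliquots of K562 cells (2×10^6 cells/mL) treated with 10 μM compound for 30 min were heated for 3 min over 48°C-58°C. After pooling and extraction in PBS with 0.5% NP-40 at 4°C, soluble protein from a 21,000xg, 90 min spin was quantified by TMTpro 16plex LC-MS/MS with channel sums equalised. Thermal stability is expressed against control samples, from duplicates, as a log2 fold change.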

[2] = compound: CC1=C(C=C(C=C1)NC(=O)C2=CC(=CC=C2)N(C)C)NC(=O)C3=CC=C(C=C3)O
Outline: as §1

[3] = compound: CC1=CC=C(C=C1)SC2=C3C=C(SC3=CN=C2)C(=O)N
Outline: as §1

[4] = compound: CC1=NC(=CC=C1)C2=C(N=C(N2)C(C)(C)C)C3=CC4=NC=CN=C4C=C3
Outline: as §1

Nexturastat A = compound: CCCCN(Cc1ccc(C(=O)NO)cc1)C(=O)Nc1ccccc1 [Nexturastat A]
Outline: as §1

vemurafenib = compound: CCCS(=O)(=O)Nc1ccc(F)c(C(=O)c2c[nH]c3ncc(-c4ccc(Cl)cc4)cc23)c1F [vemurafenib]
Outline: as §1

[5] = compound: CCCS(=O)(=O)Nc1ccc(F)c(C(=O)c2c[nH]c3ncc(Cl)cc23)c1F
Outline: as §1

[6] = compound: CCCc1cc(C)[nH]c(=O)c1CNC(=O)c1cc(-c2ccnc(N3CCN(C)CC3)c2)cc2c1cnn2C(C)C
Outline: as §1

givinostat = compound: CCN(CC)Cc1ccc2cc(COC(=O)Nc3ccc(C(=O)NO)cc3)ccc2c1 [givinostat]
Outline: as §1

barasertib = compound: CCN(CCCOc1ccc2c(Nc3cc(CC(=O)Nc4cccc(F)c4)[nH]n3)ncnc2c1)CCOP(=O)(O)O [barasertib]
Outline: as §1

Measured: log2 fold change

INTS7 (UniProt Q9NVH2)
inactive: [1] 0.134 | [2] -0.007 | [3] 0.088 | [4] 0.091 | Nexturastat A -0.001 | vemurafenib 0.039 | [5] 0.018 | [6] 0.027 | givinostat 0.242 | barasertib 0.022

INTS11 (UniProt Q5TA45)
inactive: [1] 0.036 | [2] 0.012 | [3] 0.003 | [4] 0.013 | Nexturastat A 0 | vemurafenib 0.038 | [5] 0.041 | [6] 0.004 | givinostat -0.027 | barasertib 0.01

ISG15 (UniProt P05161)
inactive: [1] 0.007 | [2] -0.059 | [3] -0.005 | [4] 0.079 | Nexturastat A 0.017 | vemurafenib 0.065 | [5] 0.057 | [6] -0.022 | givinostat 0.106 | barasertib 0.056

INTS9 (UniProt Q9NV88)
inactive: [1] 0.031 | [2] -0.021 | [3] -0.023 | [4] 0.057 | Nexturastat A -0.051 | vemurafenib 0.001 | [5] 0.025 | [6] -0.078 | givinostat -0.008 | barasertib 0.002

ITPA (UniProt Q9BY32)
inactive: [1] 0.015 | [2] -0.014 | [3] 0.053 | [4] -0.012 | Nexturastat A 0.084 | vemurafenib -0.001 | [5] 0.049 | [6] -0.03 | givinostat -0.004 | barasertib 0.007

ITGA5 (UniProt P08648)
inactive: [1] -0.027 | [2] 0.007 | [3] 0.071 | [4] -0.004 | Nexturastat A 0.036 | vemurafenib 0.046 | [5] 0.007 | [6] -0.011 | givinostat -0.014 | barasertib -0.004

IDH2 (UniProt P48735)
inactive: [1] 0.018 | [2] -0.054 | [3] -0.041 | [4] 0.02 | Nexturastat A -0.139 | vemurafenib -0.014 | [5] 0.007 | [6] -0.021 | givinostat -0.063 | barasertib 0.053

IST1 isoform 5 (UniProt P53990)
inactive: [1] 0.023 | [2] -0.012 | [3] 0.02 | [4] 0.022 | Nexturastat A -0.021 | vemurafenib 0.017 | [5] 0.038 | [6] -0.034 | givinostat 0.021 | barasertib 0.021

ITM2A (UniProt O43736)
inactive: [1] -0.033 | [2] -0.073 | [3] -0.026 | [4] -0.03 | Nexturastat A 0.002 | vemurafenib -0.004 | [5] -0.103 | [6] 0.026 | givinostat -0.046 | barasertib -0.015

IGFBP4 (UniProt P22692)
inactive: [1] 0.044 | [2] 0.207 | [3] 0.026 | [4] 0.003 | Nexturastat A 0.019 | vemurafenib 0.084 | [5] -0.08 | [6] -0.193 | givinostat -0.007 | barasertib 0.013

ITIH4 (UniProt Q14624)
inactive: [1] -0.14 | [2] 0.166 | [3] 0.135 | [4] 0.214 | Nexturastat A 0.014 | vemurafenib 0.224 | [5] 0.012 | [6] -0.211 | givinostat -0.005 | barasertib 0.014

IK (UniProt Q13123)
inactive: [1] 0.032 | [2] 0.039 | [3] -0.035 | [4] -0.026 | Nexturastat A 0.093 | vemurafenib 0.086 | [5] -0.002 | [6] 0.036 | givinostat 0.021 | barasertib 0.047

IMMP2L (UniProt Q96T52)
inactive: [1] -0.069 | [2] -0.007 | [3] 0 | [4] 0.015 | Nexturastat A -0.07 | vemurafenib -0.028 | [5] -0.005 | [6] -0.012 | givinostat 0.069 | barasertib 0

ISL2 (UniProt Q96A47)
inactive: [4] -0.002 | barasertib -0.005

ING5 (UniProt Q8WYH8)
inactive: [3] 0.058 | [4] -0.052 | [5] -0.011 | [6] -0.237 | givinostat 0.316

IGSF8 (UniProt Q969P0)
inactive: [2] 0.064 | [3] -0.155 | [4] 0.003 | Nexturastat A -0.059 | vemurafenib 0.006 | [5] -0.111 | [6] -0.156 | givinostat 0.053 | barasertib -0.032

ITGB3BP isoform 5 (UniProt Q13352)
inactive: [2] -0.033 | givinostat -0.116

IMPDH2 (UniProt H0Y4R1)
inactive: [2] 0.01 | [3] -0.069 | [4] -0.021 | Nexturastat A 0.062 | vemurafenib -0.044 | [5] 0.041 | [6] 0.02 | givinostat -0.148 | barasertib -0.085

IGHG1 (UniProt P01857)
inactive: [1] 0.043 | vemurafenib 0.444 | [6] -0.001 | givinostat 0.397 | barasertib 0.233

ITPR1 (UniProt Q14643)
inactive: [2] 0.029 | [4] 0.048 | Nexturastat A 0.627 | givinostat -0.244 | barasertib 0.054

IGLC3 (UniProt P0DOY3)
inactive: [6] -0.115

IL1RAP isoform 5 (UniProt Q9NPH3)
inactive: [2] -0.006 | [3] 0.159 | Nexturastat A 0.049 | vemurafenib -0.04 | [5] -0.291 | barasertib -0.028

IGF2 isoform 3 (UniProt P01344)
inactive: [4] 0.136 | vemurafenib 0.073 | givinostat -0.148

IKZF1 (UniProt R9R4D9)
inactive: [3] -0.116 | [4] 0.026 | [5] 0.033

IL23R (UniProt Q5VWK5)
inactive: vemurafenib -0.048 | barasertib 0.063

INHBE (UniProt P58166)
inactive: [1] -0.065 | vemurafenib 0.039 | [6] 0.144 | givinostat 0.094 | barasertib -0.024

ING4 (UniProt Q9UNL4)
inactive: Nexturastat A -0.169 | givinostat -0.33

IL2RG (UniProt P31785)
inactive: Nexturastat A 0.099 | vemurafenib -0.067

INCENP (UniProt Q9NQS7)
inactive: [2] 0.021 | [4] -0.136

IDH3A isoform 2 (UniProt P50213)
inactive: [4] -0.083 | givinostat 0.175 | barasertib -0.012

IDUA (UniProt P35475)
inactive: [3] -0.033 | Nexturastat A 0.038 | [5] 0.056 | [6] -0.069

IFT27 (UniProt Q9BW83)
inactive: [3] -0.159 | [5] 0.029 | givinostat 0.056

ITGB1BP1 (UniProt O14713)
inactive: [2] -0.007 | Nexturastat A 0.003 | givinostat 0.073 | barasertib 0.067

IGFBP6 (UniProt P24592)
inactive: [2] 0.03 | vemurafenib 0.189

IDS (UniProt P22304)
inactive: [2] 0.09 | [3] -0.117 | [5] -0.123

ITPR3 (UniProt Q14573)
inactive: [4] -0.201 | vemurafenib -0.145

8 consecutive entries already listed:
INCENP (UniProt Q9NQS7)
inactive: [2] 0.021 | [4] -0.136

IDH3A isoform 2 (UniProt P50213)
inactive: [4] -0.083 | givinostat 0.175 | barasertib -0.012

IDUA (UniProt P35475)
inactive: [3] -0.033 | Nexturastat A 0.038 | [5] 0.056 | [6] -0.069

IFT27 (UniProt Q9BW83)
inactive: [3] -0.159 | [5] 0.029 | givinostat 0.056

ITGB1BP1 (UniProt O14713)
inactive: [2] -0.007 | Nexturastat A 0.003 | givinostat 0.073 | barasertib 0.067

IGFBP6 (UniProt P24592)
inactive: [2] 0.03 | vemurafenib 0.189

IDS (UniProt P22304)
inactive: [2] 0.09 | [3] -0.117 | [5] -0.123

ITPR3 (UniProt Q14573)
inactive: [4] -0.201 | vemurafenib -0.145

Continuation.

IL17RA (UniProt Q96F46)
inactive: [1] 0.299 | [6] 0.042

IQSEC2 (UniProt Q5JU85)
inactive: [3] 0.033 | [5] 0.055 | [6] 0.042

IGSF1 isoform 4 (UniProt Q8N6C5)
inactive: [3] 0.059 | [5] 0.064 | [6] -0.342

IMPA1 (UniProt E5RIP7)
inactive: barasertib -0.154

INO80E (UniProt Q8NBZ0)
inactive: [2] -0.002 | [3] -0.1 | [4] -0.038 | [5] -0.11 | [6] 0.011 | givinostat -0.037 | barasertib 0.281

IQGAP3 (UniProt Q86VI3)
inactive: [2] 0.034

ITIH1 (UniProt P19827)
inactive: [6] -0.169 | givinostat 0.125

INTS12 (UniProt Q96CB8)
inactive: vemurafenib 0.138

ITPRID2 (UniProt P28290)
inactive: [2] -0.003 | [3] -0.103 | [4] -0.065 | Nexturastat A -0.188 | vemurafenib -0.125 | [5] -0.097 | givinostat 0.213

IPP (UniProt Q9Y573)
inactive: barasertib -0.139
